From paper PMC3447774, “Genes Encoding Cher-TPR Fusion Proteins Are Predominantly Found in Gene Clusters Encoding Chemosensory Pathways with Alternative Cellular Functions” (PLoS ONE, 2012)
These are yes or no findings as the source states them, for the method shown.

Legend:
[1] = biological target: WspC-Pp (CheR-TPR methyltransferase WspC of Pseudomonas putida KT2440, ORF PP1490) (Pseudomonas putida KT2440) (UniProt Q88MS8); experiment: AUC; sedimentation equilibrium, short column (85 µl), 12000 and 15000 rpm, 20°C; fitted as an ideally sedimenting single solute; both purified
[2] = biological target: WspC-Pp (CheR-TPR methyltransferase WspC of Pseudomonas putida KT2440, ORF PP1490) (Pseudomonas putida KT2440) (UniProt Q88MS8); experiment: AUC; sedimentation velocity, 48000 rpm, 20°C, 50 mM Tris/HCl pH 8.0, 300 mM NaCl, 1 µM DTT; protein 0.25 to 2 mg/ml; without and with SAM (500 µM) or SAH (50 µM); both purified

binding [1]: no binding
binding [2]: no binding (tested: 0.25 to 2 mg/ml)
B1: WspC-Pp (CheR-TPR methyltransferase WspC of Pseudomonas putida KT2440, ORF PP1490) (enzyme, UniProt Q88MS8 1-424)
chain: MNEQRFFRFLRERIGLDVESVGAPMVERALRQRCVAAGAMDLDDYWLRLQQSADEQQALIEAVIVPETWFFRYPESFTALASLAHKRLAQLAGARPLRLLSLPCSTGEEPYSLAMALFDAGMAPGAFLVDGMDISPSSVAKAGQAVYGRNAFRGSELGFRERYFDALDEGHRLHERVRQQVSLRVGNVLDPALASRDGLYDFVFCRNLLIYFDVPTQQRVFEVLKRLLHPQGVLFIGPAEGSLLARMGMRPLGIAQSFAYVRHEGDSAPLAAAPAQTAKRAFTTLPAPVYPQPSVPLPRSRRVLPVAARPARAREHSHEGASELLAGIARLANAGASEQARSECQRYLSQYPPSAQVYYWLGLLSDTEGDAQQALSHYRKALYLEPQHPEALVHLAALLAAQGDLAGARRLQERAARAGRESER
